Among the data in publication PMC7273913 are binding values, retold here.

Substitutions are numbered along the chain they refer to. Numbers in names are those of the source. Results are given in words; binding and its absence hold for the method and conditions named. Binding calls can cover weak binding; strength is not graded here.

The chains are these.
B1: Human FANCL URD-RING (residues 109–375), wild type (domain or fragment, UniProt Q9NW38 109-375)
chain: QFYSSLIEEIGTLGWDKLVYADTCFSTIKLKAEDASGREHLITLKLKAKYPAESPDYFVDFPVPFCASWTPQSSLISIYSQFLAAIESLKAFWDVMDEIDEKTWVLEPEKPPRSATARRIALGNNVSINIEVDPRHPTMLPECFFLGADHVVKPLGIKLSRNIHLWDPENSVLQNLKDVLEIDFPARAILEKSDFTMDCGICYAYQLDGTIPDQVCDNSQCGQPFHQICLYEWLRGLLTSRQSFNIIFGECPYCSKPITLKMSGRKH
B2: Human FANCL URD-RING (109–375) E217K (domain or fragment, UniProt Q9NW38 109-375)
chain: B1 chain with E109K
B3: Human FANCL URD-RING (109–375) M247V (domain or fragment, UniProt Q9NW38 109-375)
chain: B1 chain with M139V
B4: Human FANCL URD-RING (109–375) A192G (domain or fragment, UniProt Q9NW38 109-375)
chain: B1 chain with A84G
B5: Human FANCL URD-RING (109–375) N270K (domain or fragment, UniProt Q9NW38 109-375)
chain: B1 chain with N162K
B6: Human FANCL URD-RING (109–375) E289Q (domain or fragment, UniProt Q9NW38 109-375)
chain: B1 chain with E181Q
B7: Human FANCL URD-RING (109–375) L149V (domain or fragment, UniProt Q9NW38 109-375)
chain: B1 chain with L41V
B8: Human FANCL URD-RING (109–375) T224K (domain or fragment, UniProt Q9NW38 109-375)
chain: B1 chain with T116K
B9: Human FANCL URD-RING (109–375) hydrophobic patch mutant L248A, F252A, L254A, I265A (domain or fragment, UniProt Q9NW38 109-375)
chain: B1 chain with L140A, F144A, L146A, I157A
B10: Human FANCL URD-RING (109–375) L154S (domain or fragment, UniProt Q9NW38 109-375)
chain: B1 chain with L46S
B11: Human FANCL URD-RING (109–375) R221W (domain or fragment, UniProt Q9NW38 109-375)
chain: B1 chain with R113W

In this assay the target is Xenopus laevis FANCD2, 6xHis-tagged (Xenopus laevis). Nature of the assay: pull-down; 0.5 µg 6xHis-FANCD2 as bait on magnetic Ni-NTA, 10 µg FANCL URD-RING as prey; 4°C, 2 h; 100 mM Tris pH 8, 100 mM NaCl, 0.05% Triton-X, 0.1% BSA; three washes; SDS-PAGE, Coomassie stain quantified, corrected for the beads-only control and normalized to WT; both purified.
As for B1, the binding result was “binds”.
As for B2, the entry is “binds”; as for B3, “binds”; as for B4, “binds”.
As for B5, the entry is “binds”.
For B6 the value was “binds”; for B7, “binds”.
For B8, the binding entry is on record as “binds”.
As for B9, the entry is “binds”; as for B10, “binds”; as for B11, “binds”.
